Laboratory results: PubChem BioAssay AID686938 (Drosophila RNAi Screening Center, 2013)

Assay: 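Fly genes required for calcium entry once internal stores are emptied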 (primary screen)
Cell system: Drosophila S2R+ cells
Reagents: long dsRNA against Drosophila genes, about 0.25 µg dsRNA per well, roughly 10,000 cells
Time to read-out: 5 days of knock-down before the calcium assay
Conditions: thapsigargin (SERCA pump blocker) to empty calcium stores; entry signal taken 4 min after adding it
Measurement: 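Duplicate raw fluo-4 intensities per well from a plate reader, at rest and four minutes after thapsigargin emptied calcium stores; entry-to-rest ratio filled for only some wells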
Scale: calcium entry signal: higher = stronger calcium signal after store depletion; resting calcium signal: higher = higher resting calcium signal
Rule for the call: 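Called when the plate z-score of the entry-to-rest ratio, mean of duplicates, falls below −3; wells with low overall dye signal (Fmax z below −2) or more than five off-targets excluded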
Calls: active = strongly reduced calcium entry; inactive = no strong reduction
The deposit covers about 23,000 reagents; this is an unselected part of those that have a named target and a result. Over the whole deposit, 75 (0.33%) were called active. 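Raw plate signals without normalisation; calls rest on plate z-scores that were not deposited; ratio present for only 364 wells.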 Entries without a mark were called inactive. Not given: the dose of the treatment.

EloC (Elongin C) [DRSC07423] → calcium entry signal, replicate 1 (fluorescence units) = 4.42e7; calcium entry signal, replicate 2 (fluorescence units) = 4.56e7; resting calcium signal, replicate 1 (fluorescence units) = 2.44e7; resting calcium signal, replicate 2 (fluorescence units) = 2.47e7
CG31661 [DRSC00296] → calcium entry signal, replicate 1 (fluorescence units) = 4.08e7; calcium entry signal, replicate 2 (fluorescence units) = 3.39e7; resting calcium signal, replicate 1 (fluorescence units) = 1.87e7; resting calcium signal, replicate 2 (fluorescence units) = 1.54e7
Kif19A (Kinesin family member 19A) [DRSC16576] → calcium entry signal, replicate 1 (fluorescence units) = 2.23e7; calcium entry signal, replicate 2 (fluorescence units) = 2.56e7; resting calcium signal, replicate 1 (fluorescence units) = 1.24e7; resting calcium signal, replicate 2 (fluorescence units) = 1.38e7
CG15260 [DRSC01977] → calcium entry signal, replicate 1 (fluorescence units) = 3.42e7; calcium entry signal, replicate 2 (fluorescence units) = 2.53e7; resting calcium signal, replicate 1 (fluorescence units) = 1.70e7; resting calcium signal, replicate 2 (fluorescence units) = 1.32e7
shf (shifted) [DRSC18283] → calcium entry signal, replicate 1 (fluorescence units) = 2.94e7; calcium entry signal, replicate 2 (fluorescence units) = 4.11e7; resting calcium signal, replicate 1 (fluorescence units) = 1.43e7; resting calcium signal, replicate 2 (fluorescence units) = 2.07e7
dila (dilatory) [DRSC06607] → calcium entry signal, replicate 1 (fluorescence units) = 4.08e7; calcium entry signal, replicate 2 (fluorescence units) = 2.90e7; resting calcium signal, replicate 1 (fluorescence units) = 2.15e7; resting calcium signal, replicate 2 (fluorescence units) = 1.36e7
Jhbp13 (Juvenile hormone binding protein 13) [DRSC02913] → calcium entry signal, replicate 1 (fluorescence units) = 4.91e7; calcium entry signal, replicate 2 (fluorescence units) = 3.38e7; resting calcium signal, replicate 1 (fluorescence units) = 1.94e7; resting calcium signal, replicate 2 (fluorescence units) = 1.52e7
kra (krasavietz) [DRSC12320] → calcium entry signal, replicate 1 (fluorescence units) = 2.46e7; calcium entry signal, replicate 2 (fluorescence units) = 3.23e7; resting calcium signal, replicate 1 (fluorescence units) = 1.29e7; resting calcium signal, replicate 2 (fluorescence units) = 1.70e7
CG18284 [DRSC02661] → calcium entry signal, replicate 1 (fluorescence units) = 4.81e7; resting calcium signal, replicate 1 (fluorescence units) = 2.18e7
CG18284 [DRSC20756] → calcium entry signal, replicate 1 (fluorescence units) = 5.16e7; calcium entry signal, replicate 2 (fluorescence units) = 3.97e7; resting calcium signal, replicate 1 (fluorescence units) = 2.32e7; resting calcium signal, replicate 2 (fluorescence units) = 1.87e7
Rs1 [DRSC05945] → calcium entry signal, replicate 1 (fluorescence units) = 3.70e7; calcium entry signal, replicate 2 (fluorescence units) = 2.60e7; resting calcium signal, replicate 1 (fluorescence units) = 1.66e7; resting calcium signal, replicate 2 (fluorescence units) = 1.45e7

Limited to “resting calcium signal, replicate 1 (fluorescence units)”, for 3 of the entries above:
Kif19A (Kinesin family member 19A) [DRSC16576]: 1.24e7
CG15260 [DRSC01977]: 1.70e7
shf (shifted) [DRSC18283]: 1.43e7

The results go on:
ave (aveugle) [DRSC05502] → calcium entry signal, replicate 1 (fluorescence units) = 4.18e7; calcium entry signal, replicate 2 (fluorescence units) = 3.85e7; resting calcium signal, replicate 1 (fluorescence units) = 1.68e7; resting calcium signal, replicate 2 (fluorescence units) = 1.64e7
CG2246 [DRSC15433] → calcium entry signal, replicate 1 (fluorescence units) = 5.35e7; calcium entry signal, replicate 2 (fluorescence units) = 6.96e7; resting calcium signal, replicate 1 (fluorescence units) = 2.51e7; resting calcium signal, replicate 2 (fluorescence units) = 3.04e7
CTCF [DRSC11004] → calcium entry signal, replicate 1 (fluorescence units) = 4.62e7; calcium entry signal, replicate 2 (fluorescence units) = 3.36e7; resting calcium signal, replicate 1 (fluorescence units) = 3.26e7; resting calcium signal, replicate 2 (fluorescence units) = 1.48e7
TotF (Turandot F) [DRSC02305] → calcium entry signal, replicate 1 (fluorescence units) = 2.29e7; calcium entry signal, replicate 2 (fluorescence units) = 3.96e7; resting calcium signal, replicate 1 (fluorescence units) = 1.13e7; resting calcium signal, replicate 2 (fluorescence units) = 1.62e7
CG7131 [DRSC16203] → calcium entry signal, replicate 1 (fluorescence units) = 5.73e7; calcium entry signal, replicate 2 (fluorescence units) = 4.04e7; resting calcium signal, replicate 1 (fluorescence units) = 2.60e7; resting calcium signal, replicate 2 (fluorescence units) = 1.67e7
RN-tre (Related to the N terminus of tre oncogene) [DRSC07521] → calcium entry signal, replicate 1 (fluorescence units) = 3.62e7; calcium entry signal, replicate 2 (fluorescence units) = 3.87e7; resting calcium signal, replicate 1 (fluorescence units) = 1.82e7; resting calcium signal, replicate 2 (fluorescence units) = 1.91e7
Vrp1 (Verprolin 1) [DRSC04148] → calcium entry signal, replicate 1 (fluorescence units) = 1.18e7; resting calcium signal, replicate 1 (fluorescence units) = 9.47e6
robo1 (roundabout 1) [DRSC04712] → calcium entry signal, replicate 1 (fluorescence units) = 3.67e7; calcium entry signal, replicate 2 (fluorescence units) = 4.64e7; resting calcium signal, replicate 1 (fluorescence units) = 1.93e7; resting calcium signal, replicate 2 (fluorescence units) = 2.23e7
CG31115 [DRSC13692] → calcium entry signal, replicate 1 (fluorescence units) = 4.60e7; calcium entry signal, replicate 2 (fluorescence units) = 3.74e7; resting calcium signal, replicate 1 (fluorescence units) = 2.08e7; resting calcium signal, replicate 2 (fluorescence units) = 1.87e7
Lasp [DRSC10379] → calcium entry signal, replicate 1 (fluorescence units) = 4.38e7; calcium entry signal, replicate 2 (fluorescence units) = 6.82e7; resting calcium signal, replicate 1 (fluorescence units) = 2.30e7; resting calcium signal, replicate 2 (fluorescence units) = 2.67e7
